Some of these results come from one statement about several compounds together.
Columns and labels:
[1] = test system: leukotriene B4 production; assay: Leukotriene B4 (LTB4) inhibition assay in A23187 stimulated RBL-2H3 cells; assay type: cell-based, rat; details: 10 μM
RBL-2H3 cell line = assay: Ca2+-induced RBL-2H3 mast cell degranulation (calcium ionophore A23187); assay type: cell-based, rat; details: 10 μM concentration, RBL-2H3 cells

Row | Compound | inhibition of LTB4 production [1] | inhibition of Ca2+-induced degranulation by means of a calcium ionophore (RBL-2H3 cell line)
1 | CC(=O)C(c1c(O)c2cc(C(C)C)ccc2oc1=O)c1c(O)c2cc(C(C)C)ccc2oc1=O [Example 18] | significant inhibition | –
2 | Cc1cc2oc(=O)c(C(CO)c3c(O)c4cc(C)c(C)cc4oc3=O)c(O)c2cc1C [Example 28] | significant inhibition | –
3 | Cc1cc2oc(=O)c(C(CO)c3c(O)c4cc(Cl)c(C)cc4oc3=O)c(O)c2cc1Cl [Example 33] | significant inhibition | –
4 | Cc1cc2oc(=O)c(C(C(=O)OCCO)c3c(O)c4cc(C)c(C)cc4oc3=O)c(O)c2cc1C [Example 51] | significant inhibition | –
5 | COc1ccc(C(c2c(O)c3cc(Cl)ccc3oc2=O)c2c(O)c3cc(Cl)ccc3oc2=O)cc1 [Example 96] | significant inhibition | significant inhibitory activity
6 | O=c1oc2ccc(Cl)cc2c(O)c1C(c1cnc2ccccc2c1)c1c(O)c2cc(Cl)ccc2oc1=O [Example 97] | significant inhibition | significant inhibitory activity
7 | O=c1oc2ccc(Cl)cc2c(O)c1C(c1ccc(Oc2ccccc2)cc1)c1c(O)c2cc(Cl)ccc2oc1=O [Example 101] | significant inhibition | significant inhibitory activity
8 | O=c1oc2ccc(Cl)cc2c(O)c1C(c1ccccn1)c1c(O)c2cc(Cl)ccc2oc1=O [Example 103] | significant inhibition | significant inhibitory activity
9 | CCOc1cccc(C(c2c(O)c3cc(Cl)ccc3oc2=O)c2c(O)c3cc(Cl)ccc3oc2=O)c1 [Example 105] | significant inhibition | significant inhibitory activity
10 | O=c1oc2ccc(Cl)cc2c(O)c1C(c1cccc(O)c1)c1c(O)c2cc(Cl)ccc2oc1=O [Example 106] | significant inhibition | significant inhibitory activity
11 | COc1cc(C(c2c(O)c3cc(Cl)ccc3oc2=O)c2c(O)c3cc(Cl)ccc3oc2=O)ccc1OCc1ccccc1 [Example 108] | significant inhibition | significant inhibitory activity
12 | CSc1ccc(C(c2c(O)c3cc(Cl)ccc3oc2=O)c2c(O)c3cc(Cl)ccc3oc2=O)cc1 [Example 109] | significant inhibition | significant inhibitory activity
13 | O=c1oc2ccc(Cl)cc2c(O)c1C(c1cc(Br)cs1)c1c(O)c2cc(Cl)ccc2oc1=O [Example 110] | significant inhibition | significant inhibitory activity
14 | O=c1oc2ccc(Cl)cc2c(O)c1C(c1ccc(Cl)cc1)c1c(O)c2cc(Cl)ccc2oc1=O [Example 111] | significant inhibition | significant inhibitory activity
15 | Cc1ccc(C(c2c(O)c3cc(Cl)ccc3oc2=O)c2c(O)c3cc(Cl)ccc3oc2=O)cc1 [Example 114] | significant inhibition | significant inhibitory activity
16 | O=c1oc2ccc(Cl)cc2c(O)c1C(c1ccccc1)c1c(O)c2cc(Cl)ccc2oc1=O [Example 115] | significant inhibition | significant inhibitory activity
17 | Cc1cc2oc(=O)c(C(c3ccc4c(c3)CCO4)c3c(O)c4cc(Cl)c(C)cc4oc3=O)c(O)c2cc1Cl [Example 125] | significant inhibition | –
18 | Cc1cc2oc(=O)c(C(c3ccc4c(c3)OCCO4)c3c(O)c4cc(Cl)c(C)cc4oc3=O)c(O)c2cc1Cl [Example 126] | significant inhibition | –
19 | Cc1cc2oc(=O)c(C(c3ccccn3)c3c(O)c4cc(Cl)c(C)cc4oc3=O)c(O)c2cc1Cl [Example 127] | significant inhibition | –
20 | Cc1cc2oc(=O)c(C(c3cccc(Oc4ccccc4)c3)c3c(O)c4cc(Cl)c(C)cc4oc3=O)c(O)c2cc1Cl [Example 131] | – | significant inhibitory activity
21 | Cc1cc2oc(=O)c(C(c3ccc(Cl)cc3)c3c(O)c4cc(Cl)c(C)cc4oc3=O)c(O)c2cc1Cl [Example 135] | significant inhibition | significant inhibitory activity
22 | Cc1cc2oc(=O)c(C(c3ccc(O)cc3)c3c(O)c4cc(Cl)c(C)cc4oc3=O)c(O)c2cc1Cl [Example 136] | significant inhibition | significant inhibitory activity
23 | Cc1cc2oc(=O)c(C(c3ccc(OC(C)C)cc3)c3c(O)c4cc(Cl)c(C)cc4oc3=O)c(O)c2cc1Cl [Example 137] | significant inhibition | significant inhibitory activity
24 | Cc1ccc(C(c2c(O)c3cc(Cl)c(C)cc3oc2=O)c2c(O)c3cc(Cl)c(C)cc3oc2=O)cc1 [Example 138] | significant inhibition | –
25 | Cc1ccc2oc(=O)c(C(c3ccc(O)cc3)c3c(O)c4cc(C)ccc4oc3=O)c(O)c2c1 [Example 149] | significant inhibition | significant inhibitory activity

Row | Compound | inhibition of LTB4 production [1] | inhibition of Ca2+-induced degranulation by means of a calcium ionophore (RBL-2H3 cell line)
26 | COc1ccc(C(c2c(O)c3ccc(C)cc3oc2=O)c2c(O)c3ccc(C)cc3oc2=O)cc1 [Example 154] | significant inhibition | significant inhibitory activity
27 | Cc1ccc2c(O)c(C(c3c(O)c4ccc(C)cc4oc3=O)c3ccnc4ccccc34)c(=O)oc2c1 [Example 156] | significant inhibition | significant inhibitory activity
28 | Cc1ccc2c(O)c(C(c3ccc(F)c(Br)c3)c3c(O)c4ccc(C)cc4oc3=O)c(=O)oc2c1 [Example 160] | significant inhibition | significant inhibitory activity
29 | Cc1ccc2c(O)c(C(c3ccncc3)c3c(O)c4ccc(C)cc4oc3=O)c(=O)oc2c1 [Example 161] | significant inhibition | significant inhibitory activity
30 | Cc1ccc2c(O)c(C(c3ccccn3)c3c(O)c4ccc(C)cc4oc3=O)c(=O)oc2c1 [Example 164] | significant inhibition | –
31 | Cc1ccc2c(O)c(C(c3ccc(O)cc3)c3c(O)c4ccc(C)cc4oc3=O)c(=O)oc2c1 [Example 172] | significant inhibition | –
32 | Cc1cc2oc(=O)c(C(c3cnc4ccccc4c3)c3c(O)c4cc(C)c(C)cc4oc3=O)c(O)c2cc1C [Example 178] | significant inhibition | –
33 | Cc1cc2oc(=O)c(C(c3cccc(Cl)c3)c3c(O)c4cc(C)c(C)cc4oc3=O)c(O)c2cc1C [Example 181] | significant inhibition | –
34 | Cc1cc(C)c2oc(=O)c(C(c3ccncc3)c3c(O)c4cc(C)cc(C)c4oc3=O)c(O)c2c1 [Example 207] | significant inhibition | –
35 | Cc1cc(C)c2oc(=O)c(C(c3cccc(Oc4ccccc4)c3)c3c(O)c4cc(C)cc(C)c4oc3=O)c(O)c2c1 [Example 214] | significant inhibition | –
36 | Cc1cc(C)c2oc(=O)c(C(c3ccc(Cl)cc3)c3c(O)c4cc(C)cc(C)c4oc3=O)c(O)c2c1 [Example 218] | significant inhibition | –
37 | CCc1ccc2oc(=O)c(C(c3ccc(O)cc3)c3c(O)c4cc(CC)ccc4oc3=O)c(O)c2c1 [Example 244] | significant inhibition | –
38 | CCc1ccc2oc(=O)c(C(c3ccc(OC(C)C)cc3)c3c(O)c4cc(CC)ccc4oc3=O)c(O)c2c1 [Example 245] | significant inhibition | –
39 | CCOC(=O)C(c1c(O)c2cccc(C(C)C)c2oc1=O)c1c(O)c2cccc(C(C)C)c2oc1=O [Example 292] | significant inhibition | –
40 | CCCCOC(=O)C(c1c(O)c2cccc(C(C)C)c2oc1=O)c1c(O)c2cccc(C(C)C)c2oc1=O [Example 294] | significant inhibition | –
41 | COc1ccc(C(c2c(O)c3cc(F)ccc3oc2=O)c2c(O)c3cc(F)ccc3oc2=O)cc1 [Example 304] | significant inhibition | –
42 | O=c1oc2ccc(Br)cc2c(O)c1C(c1ccc2c(c1)CCO2)c1c(O)c2cc(Br)ccc2oc1=O [Example 333] | significant inhibition | –
43 | O=c1oc2ccc(Br)cc2c(O)c1C(c1ccc2c(c1)OCCO2)c1c(O)c2cc(Br)ccc2oc1=O [Example 334] | significant inhibition | –
44 | COc1ccc(C(c2c(O)c3cc(Br)ccc3oc2=O)c2c(O)c3cc(Br)ccc3oc2=O)cc1Br [Example 335] | significant inhibition | –
45 | COc1cc(C(c2c(O)c3cc(Br)ccc3oc2=O)c2c(O)c3cc(Br)ccc3oc2=O)ccc1OCc1ccccc1 [Example 336] | significant inhibition | –
46 | CSc1ccc(C(c2c(O)c3cc(Br)ccc3oc2=O)c2c(O)c3cc(Br)ccc3oc2=O)cc1 [Example 337] | significant inhibition | –
47 | CC(C)Oc1ccc(C(c2c(O)c3cc(Br)ccc3oc2=O)c2c(O)c3cc(Br)ccc3oc2=O)cc1 [Example 338] | significant inhibition | –
48 | CCOc1cccc(C(c2c(O)c3cc(Br)ccc3oc2=O)c2c(O)c3cc(Br)ccc3oc2=O)c1 [Example 339] | significant inhibition | –
49 | O=c1oc2ccc(Br)cc2c(O)c1C(c1cccc(Oc2ccccc2)c1)c1c(O)c2cc(Br)ccc2oc1=O [Example 340] | significant inhibition | –
50 | Cc1cc2oc(=O)c(C(c3c(O)c4cc(C)c(C)cc4oc3=O)C(C)O)c(O)c2cc1C (stereo not shown) [Example 363] | significant inhibition | –
